Assay results reported in publication doi:10.1101/790519.
These are yes or no findings as the source states them, for the method shown. In cells and extracts the contact can be indirect. Some results given as binding are weak or reduced against the parent protein; the word gives no strength.

Protein sequences, listed by entry. Tags and fused reporters are not part of them. Lines headed by an entry give the natural chain unless they say otherwise; changes in a name come on top.
UniProt Q16665: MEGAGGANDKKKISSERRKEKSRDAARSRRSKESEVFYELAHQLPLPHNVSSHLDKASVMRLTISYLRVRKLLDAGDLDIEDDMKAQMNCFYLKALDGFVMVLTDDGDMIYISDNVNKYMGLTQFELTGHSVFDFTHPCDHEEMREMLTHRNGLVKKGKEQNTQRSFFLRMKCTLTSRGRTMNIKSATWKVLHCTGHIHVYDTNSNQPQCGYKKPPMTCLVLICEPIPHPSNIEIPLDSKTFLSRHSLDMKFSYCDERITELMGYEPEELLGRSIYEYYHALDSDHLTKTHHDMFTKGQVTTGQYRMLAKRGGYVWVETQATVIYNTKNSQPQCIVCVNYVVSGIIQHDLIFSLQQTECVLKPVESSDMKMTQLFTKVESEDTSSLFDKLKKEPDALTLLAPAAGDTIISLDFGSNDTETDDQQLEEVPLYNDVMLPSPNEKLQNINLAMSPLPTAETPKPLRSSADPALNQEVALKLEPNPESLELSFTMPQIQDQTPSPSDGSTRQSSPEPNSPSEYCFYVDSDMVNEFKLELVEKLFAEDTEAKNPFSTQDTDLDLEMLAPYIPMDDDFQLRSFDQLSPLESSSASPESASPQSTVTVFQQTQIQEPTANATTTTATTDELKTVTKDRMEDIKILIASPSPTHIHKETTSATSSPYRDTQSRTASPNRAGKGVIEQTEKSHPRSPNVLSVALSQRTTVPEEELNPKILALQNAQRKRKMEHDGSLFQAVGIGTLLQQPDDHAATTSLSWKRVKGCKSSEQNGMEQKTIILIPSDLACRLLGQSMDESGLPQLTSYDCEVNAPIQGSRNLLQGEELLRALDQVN
UniProt Q15022: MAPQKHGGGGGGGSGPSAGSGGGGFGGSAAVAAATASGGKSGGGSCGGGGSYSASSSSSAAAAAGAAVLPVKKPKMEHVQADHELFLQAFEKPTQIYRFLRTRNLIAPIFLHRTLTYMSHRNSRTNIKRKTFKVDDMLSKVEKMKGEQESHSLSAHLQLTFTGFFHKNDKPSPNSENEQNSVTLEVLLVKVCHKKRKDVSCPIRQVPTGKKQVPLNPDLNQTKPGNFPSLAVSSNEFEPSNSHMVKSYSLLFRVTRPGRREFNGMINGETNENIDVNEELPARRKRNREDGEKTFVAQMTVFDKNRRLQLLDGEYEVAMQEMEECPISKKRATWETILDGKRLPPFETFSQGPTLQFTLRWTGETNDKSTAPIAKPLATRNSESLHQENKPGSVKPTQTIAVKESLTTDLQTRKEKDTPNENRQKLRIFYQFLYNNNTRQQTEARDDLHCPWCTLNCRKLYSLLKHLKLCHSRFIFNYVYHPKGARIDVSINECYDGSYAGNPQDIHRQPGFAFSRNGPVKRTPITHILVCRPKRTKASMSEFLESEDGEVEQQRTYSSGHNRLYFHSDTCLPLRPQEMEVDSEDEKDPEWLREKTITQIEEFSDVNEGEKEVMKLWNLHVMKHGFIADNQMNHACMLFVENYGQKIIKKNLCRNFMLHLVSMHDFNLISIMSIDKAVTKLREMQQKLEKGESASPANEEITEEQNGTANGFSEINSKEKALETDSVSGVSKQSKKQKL

Target: non-degradable HIF1α (P564A) (UniProt Q16665)
Test: co-IP

For “SUZ12 (in 293T cells) (from UniProt Q15022 1-739)”, which binding is on record?
Its binding is “binds”.
